Experimental data: publication PMC10564737, “Structure-based design of a phosphotyrosine-masked covalent ligand targeting the E3 ligase SOCS2” (Nature Communications, 2023)
“And” between values parts separate entries of the source, which are not always exact repeats. Equal entries are not always repeated. This continues a long series; more values of the same kind are listed elsewhere.

Chains of the proteins cited; added tags and fusions are not shown. Residues count along the entry.
UniProt O14508, 32-198: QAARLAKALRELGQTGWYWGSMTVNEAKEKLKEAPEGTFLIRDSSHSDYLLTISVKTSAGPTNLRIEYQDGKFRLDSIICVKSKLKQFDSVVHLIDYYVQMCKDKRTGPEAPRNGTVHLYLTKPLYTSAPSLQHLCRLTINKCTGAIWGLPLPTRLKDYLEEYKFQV

Molecular target: T1, SBC2 (Homo sapiens, UniProt O14508)
T1 construct: SOCS2 (amino acids 32–198); His6 (N, cleaved yes); made in house; host or cells: E. coli BL21(DE3)
Assay: Covalent fluorescence polarization (FP) probe displacement assay
Type: binding
Excerpt: With the specific covalent modification of Cys111 established, we decided to fully characterize MN551 as a covalent SOCS2 inhibitor. […] (Fig. 2g, h, Supplementary Fig. 9). Due to the covalent nature of the competing inhibitor, a time-dependent reduction in the fraction of protein-bound probe is observed. […] This value illustrates reasonable specificity for a covalent inhibitor, with nonetheless scope for future optimization. In addition to characterizing the kinetic covalency parameters, we have also assessed the stability of the MN551 by monitoring its reactivity (half-life >70 min) with reduced glutathione (GSH) (Supplementary Fig. 10)[35].
To monitor the SBC2-ligand binding kinetics we designed a fluorescein-labeled small-molecule probe - compound 26. The fluorescence polarization (anisotropy) of a threefold serial dilution of 50 µM SBC2 in 10 nM of the probe in 100 mM HEPES pH 7.5, 50 mM NaCl, 0.5 mM TCEP, 2% DMSO was measured to determine the KL (Supplementary Fig. 9A) (BMG Labtech PHERAstar – firmware v1.33). Protein titration and the curves were fitted using GraphPad Prism 9, using one-site fitting models to determine the probe binding constant, KL. Samples were run in triplicate in 384 well plates, using a total volume per well of 16 μL. The bound fraction of the probe is measure using the equation:1 Fb=Af−A/Af−Ab Where,
A time-dependent reduction in probe anisotropy were measured for a 2-fold serial dilution of […] compound MN551 in 10 nM probe +300 μM SBC2. To determine the initial reversible binding affinity, the initial bound fraction of the probe at time = 0, Fbo (the y-intercept in Fb v/s Time plot, Supplementary Fig. 9B) was plotted against MN551 concentration, and the obtained IC50 is then converted to Ki (Supplementary Fig. 9C)[17]. The slope from Fb versus time graph when divided by Fbo gives rate of covalency, kobs. A plot of kobs v/s MN551 concentration using Michaelis–Menten model of GraphPad Prism 9, provides the parameters kinact (maximum potential rate of inactivation) and KI (concentration of MN551 at which kobs = kinact/2) (Supplementary Fig. 9D, E).
The observed first-order rate constant, kobs is related to KI and kinact by the equation:2 kobs=kinactI/KI+I
At [I]«[KI] the above equation is converted to3 […]
The slope from the plot of kobs against concentration of MN551 gives us the covalent efficiency parameter kinact/KI (Supp Fig. 9F)[30],[33].

[1] = MN551 48.4003 nM; Cycle 9 (40 min)
[2] = MN551 48.4003 nM; Cycle 10 (45 min)
[3] = MN551 48.4003 nM; Cycle 11 (50 min)
[4] = MN551 48.4003 nM; Cycle 12 (55 min); n=1
[5] = MN551 48.4003 nM; Cycle 13 (60 min); n=1
[6] = MN551 48.4003 nM; Cycle 14 (65 min); n=1
[7] = MN551 48.4003 nM; Cycle 15 (70 min); n=1
[8] = MN551 48.4003 nM; Cycle 16 (75 min); n=1
[9] = MN551 48.8281 nM, Cycle 8 (35 min)
[10] = MN551 48.8281 nM, Cycle 9 (40 min)
[11] = MN551 48.8281 nM, Cycle 10 (45 min)
[12] = MN551 48.8281 nM; Cycle 6 (25 min)
[13] = MN551 48.8281 nM; Cycle 7 (30 min)
[14] = MN551 48.8281 nM; Cycle 8 (35 min)
[15] = MN551 48.8281 nM; Cycle 9 (40 min)
[16] = MN551 48.8281 nM; Cycle 10 (45 min)
[17] = MN551 48.8281 nM; Cycle 12 (55 min); n=1
[18] = MN551 48.8281 nM; Cycle 13 (60 min); n=1
[19] = MN551 48.8281 nM; Cycle 14 (65 min); n=1
[20] = MN551 48.8281 nM; Cycle 15 (70 min); n=1
[21] = MN551 48.8281 nM; Cycle 16 (75 min); n=1
[22] = MN551 67.7604 nM, Cycle 8 (35 min)
[23] = MN551 67.7604 nM, Cycle 9 (40 min)
[24] = MN551 67.7604 nM, Cycle 10 (45 min)
[25] = MN551 67.7604 nM, Cycle 11 (50 min)
[26] = MN551 67.7604 nM, Cycle 15 (70 min), n=1

O=C(CCl)Nc1cccc(CNC(=O)[C@H](Cc2ccc(OP(=O)(O)O)cc2)NC(=O)Cc2ccc(F)cc2)c1 [MN551]
Fb (MN551 48.4003 nM; Cycle 8 (35 min)): 0.9933 and 1.043 and 1.113 and 1.04 and 1 and 1.032
Anisotropy [1]: 280 and 278 and 278.6
Anisotropy data 485,520,520 [1]: 268.1 and 267.5 and 268.9
Fb [1]: 0.999 and 1.03 and 1.1 and 1.0407 and 0.983 and 1.0242
Anisotropy [2]: 280.7 and 278.3 and 278.1
Anisotropy data 485,520,520 [2]: 267.1 and 263.9 and 265.8
Fb [2]: 0.9971 and 1.03 and 1.138 and 1.04 and 0.9963 and 1.019
Anisotropy [3]: 280.5 and 276 and 276.2
Fb [3]: 1.047 and 0.9915 and 1.0219
Anisotropy (MN551 48.4003 nM; Cycle 11 (50 min); n=1): 265.8 and 265.5 and 266.5
Anisotropy [4]: 266.6 and 265.4 and 263.4
Anisotropy based on Raw Data (485) [4]: 277.3 and 275.9 and 275
Anisotropy [5]: 264.6 and 263.3 and 264.3
Anisotropy based on Raw Data (485) [5]: 275 and 274.2 and 275.8
Anisotropy [6]: 266 and 262.3 and 263.7
Anisotropy based on Raw Data (485) [6]: 274.3 and 274.4 and 272.5
Anisotropy [7]: 263.4 and 262.8 and 262.4
Anisotropy based on Raw Data (485) [7]: 274.4 and 274.9 and 273.3
Anisotropy [8]: 265 and 262.8 and 263.9
Anisotropy based on Raw Data (485) [8]: 273.7 and 273.3 and 272.4
Anisotropy data 485,520,520 (MN551 48.4003 nM; Cycle 19 (90 min); n=1): 274.9 and 271.3 and 271.4
Anisotropy data 485,520,520 (MN551 48.4003 nM; Cycle 20 (95 min); n=1): 273.9 and 272.2 and 268
Fb (MN551 48.8281 nM, Cycle 7 (30 min)): 0.8745 and 0.962 and 0.9712
Anisotropy based on Raw Data (485) [9]: 280.9 and 279.7 and 278.8
Fb [9]: 0.8789 and 0.9618 and 0.963
Anisotropy based on Raw Data (485) [10]: 279.7 and 277.8 and 275.3
Fb [10]: 0.8613 and 0.962 and 0.9437
Anisotropy based on Raw Data (485) [11]: 277 and 277.8 and 275.6
Fb [11]: 0.8383 and 0.95 and 0.9637
Anisotropy based on Raw Data (485) (MN551 48.8281 nM, Cycle 11 (50 min)): 279.2 and 275.8
Anisotropy (MN551 48.8281 nM, Cycle 13 (60 min), n=1): 278.3 and 279 and 278.7
Anisotropy (MN551 48.8281 nM, Cycle 14 (65 min), n=1): 279.2 and 277.8 and 278.5
Anisotropy (MN551 48.8281 nM, Cycle 15 (70 min), n=1): 277.8 and 277 and 276.3
Anisotropy (MN551 48.8281 nM, Cycle 16 (75 min), n=1): 275.3 and 276.5
Anisotropy (MN551 48.8281 nM, Cycle 17 (80 min), n=1): 275.1 and 275.5 and 275.4
Fb, fraction bound (MN551 48.8281 nM; Cycle 3 (10 min)): 1.017 and 1.016 and 1.036
Fb, fraction bound (MN551 48.8281 nM; Cycle 4 (15 min)): 1.013 and 1.016 and 1.001
Fb, fraction bound (MN551 48.8281 nM; Cycle 5 (20 min)): 0.975 and 1.054 and 1.0156
Anisotropy data 485,520,520 [12]: 273.6 and 274.3 and 276.1
Fb [12]: 0.9397 and 0.9269 and 0.9409
Fb, fraction bound [12]: 1.009 and 1.035 and 0.9936
Anisotropy data 485,520,520 [13]: 273.7 and 271.5 and 275.6
Fb [13]: 0.9851 and 0.9229 and 0.9837
Fb, fraction bound [13]: 1.035 and 1.0159 and 1.041
Anisotropy [14]: 281.9 and 283.1 and 281.7
Anisotropy data 485,520,520 [14]: 274.7 and 271.5 and 274.9
Fb [14]: 0.9767 and 0.9141 and 0.9698 and 1.023 (2×) and 1.02
Anisotropy [15]: 279.8 and 281.1 and 281.7
Anisotropy data 485,520,520 [15]: 274.1 and 268.9 and 274
Fb [15]: 0.995 and 0.9033 and 0.9671 and 0.9896 and 1.021 and 1.031
Anisotropy [16]: 281.1 and 279.9 and 282
Anisotropy data 485,520,520 [16]: 273.6 and 269 and 274.5
Fb [16]: 1.007 and 0.9151 and 0.9836 and 1.012 and 1.024 and 1.036
Anisotropy (MN551 48.8281 nM; Cycle 11 (50 min); n=1): 271.3 and 267.7 and 270.2
Anisotropy [17]: 273 and 268.8 and 270.6
Anisotropy based on Raw Data (485) [17]: 276.8 and 278.8 and 274.9
Anisotropy [18]: 269 and 267 and 271.1
Anisotropy based on Raw Data (485) [18]: 276.2 and 276.8 and 274.6
Anisotropy [19]: 270.5 and 265.8 and 271.3
Anisotropy based on Raw Data (485) [19]: 275 and 276.5 and 273.8
Anisotropy [20]: 270.6 and 267.2 and 269.2
Anisotropy based on Raw Data (485) [20]: 275.4 and 274.5 and 271.1
Anisotropy [21]: 271.6 and 264.4 and 268.2
Anisotropy based on Raw Data (485) [21]: 276.9 and 275.1 and 272.9
Anisotropy data 485,520,520 (MN551 48.8281 nM; Cycle 19 (90 min); n=1): 275 and 275.6 and 273.5
Anisotropy data 485,520,520 (MN551 48.8281 nM; Cycle 20 (95 min); n=1): 273.5 and 274.5 and 275.2
Fb (MN551 67.7604 nM, Cycle 7 (30 min)): 0.7335 and 0.9246 and 0.8926
Anisotropy based on Raw Data (485) [22]: 275.9 and 276.5 and 278.9
Fb [22]: 0.7357 and 0.8981 and 0.8941
Anisotropy based on Raw Data (485) [23]: 276 and 275.7 and 277.3
Fb [23]: 0.7087 and 0.904 and 0.8635
Anisotropy based on Raw Data (485) [24]: 275.2 and 276.3 and 277
Fb [24]: 0.7338 and 0.9072 and 0.8843
Anisotropy based on Raw Data (485) [25]: 273.6 and 275.2 and 273.4
Fb [25]: 0.7213 and 0.8718 and 0.8974
Anisotropy (MN551 67.7604 nM, Cycle 13 (60 min), n=1): 278.7 and 273.6 and 274.5
Anisotropy (MN551 67.7604 nM, Cycle 14 (65 min), n=1): 277.8 and 274.6 and 274.7
Anisotropy [26]: 275.3 and 274.9 and 272.6
Normalised anisotropy (0 nM MN551 = 1, free probe = 0) [26]: 1.025 and 1.003 and 0.9923
Anisotropy (MN551 67.7604 nM, Cycle 16 (75 min), n=1): 276.7 and 272.6 and 270.9
